Measured data: PubChem BioAssay AID652259 (Drosophila RNAi Screening Center, 2013)
The screen tested about 22,000 reagents; shown is a random part of those that have a named target and a result. In the full data, 233 (1.1%) got an active call. 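Light values are raw, unnormalised plate reads; the ratio scores behind the reporter calls were not deposited.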 Reagent sequences are not shown. Not stated in the record: the amount of reagent, the time to read-out, the dose of the treatment.

Aim: 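Knock-downs that push a Wingless-driven reporter up or down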 (primary screen)
Cell system: Drosophila clone 8 imaginal disc epithelial cells
Knock-down reagent: long dsRNA against Drosophila genes
Challenge: pathway stimulated by co-transfected Wingless expression plasmid
Read-out: 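Firefly luciferase from a tcf-site Wingless reporter, measured alongside co-transfected Renilla luciferase that tracks transfection; pathway stimulated by a Wingless plasmid; the firefly-to-Renilla ratio is not deposited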
Scale: firefly reporter light: higher = more Wg reporter light, before normalisation; Renilla control light: higher = more transfected or surviving cells
Call rule: 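Strong candidates differ from their plate mean by at least two out of four per-plate statistical tests; weak candidates meet just one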
Meaning of the calls: active = candidate regulator (raises or lowers reporter); inactive = not a candidate

no.	gene	PubChem SID	reporter change call, replicate 1	firefly reporter light, replicate 1	firefly reporter light, replicate 2	Renilla control light, replicate 1	Renilla control light, replicate 2	Outcome
1	Rbp1 (RNA-binding protein 1)	SID104196609		5095		2512		inactive
2	mRpS26 (mitochondrial ribosomal protein S26)	SID104190615		8391		2368		inactive
3	tos (tosca)	SID104183416		5184		2173		inactive
4	sog (short gastrulation)	SID104200171		16434		8288		inactive
5	mbf1 (multiprotein bridging factor 1)	SID104191157		9441		3345		inactive
6	Or67b (Odorant receptor 67b)	SID104191033		4544		3256		inactive
7	colt (congested-like trachea)	SID104180600		11734		3805		inactive
8	CG42390	SID104195658	Wg reporter activity raised	4579	7920	569	1136	inactive
9	CG11986	SID104194253		3761		1684		inactive
10	CG6749	SID104190496		7239		2635		inactive
11	TTLL4B (Tubulin tyrosine ligase-like 4B)	SID104180428		10976		4013		inactive
12	CG30334	SID104185137		19243		16083		inactive
13	CG16888	SID104182333		3104	6179	976	2762	inactive
14	CG6788	SID104199799		22032		9154		inactive
15	CG15465	SID104197840		22048		10092		inactive
16	CG11076	SID104196989		14760		10748		inactive
17	CG4763	SID104183801		18698		11224		inactive
18	CG4763	SID104184279		3155	6152	842	2187	inactive
19	CG13855	SID104194497		35024		6983		inactive
20	Clbn (Caliban)	SID104194196		19226		14256		inactive
21	Bacc (Bacchus)	SID104180527		3184	6050	1256	2054	inactive
22	Gbeta13F (G protein beta subunit 13F)	SID104200039		1467	6202	627	1544	inactive
23	SNCF (SoxNeuro Co-Factor)	SID104189907		4709		1904		inactive
24	NANS (N-acetylneuraminic acid synthase)	SID104195535		10416		3024		inactive
25	l(3)73Ah (lethal (3) 73Ah)	SID104191151		6890		2445		inactive
26	CG12795	SID104180146		3760	11488	1106	2948	inactive
27	Pglym78 (Phosphoglyceromutase 78)	SID104196579		3273	5884	1344	2352	inactive
28	dsx (doublesex)	SID104192441		2180		912		inactive
29	dsx (doublesex)	SID104196726		9248		2224		inactive
30	dsx (doublesex)	SID104201224		7.76e5	7.90e5	3.87e5	3.19e5	inactive
31	CG31673	SID104182999		10317		3106		inactive
32	tadr (torn and diminished rhabdomeres)	SID104182969		11840		3280		inactive
33	JYalpha	SID104197016		17360		12522		inactive
34	tin (tinman)	SID104196875		36853		9197		inactive
35	tin (tinman)	SID104202212		2.94e5	3.43e5	78829	1.14e5	inactive
36	CG13135	SID104182024		2134	6548	906	3562	inactive
37	CG18179	SID104190095		6533		2804		inactive
38	CG41099	SID104200841		11552		8156		inactive
39	CG41099	SID104200843		12736		8064		inactive
40	Jhedup (Juvenile hormone esterase duplication)	SID104186965		6211		2228		inactive
41	CG8773	SID104196236		8315		3111		inactive
42	Nurf-38 (Nucleosome remodeling factor - 38kD)	SID104184421		2056	4585	641	1341	inactive
43	CheB38c (Chemosensory protein B 38c)	SID104182181		2356	8662	832	3803	inactive
44	Bsg (Basigin)	SID104180802		13292		3233		inactive
45	Bsg (Basigin)	SID104180803		18955		7873		inactive
46	CG30043	SID104186077		5465		2183		inactive
47	Marc (Mitochondrial amidoxime reducing component)	SID104186406		3600	10435	1008	3637	inactive
48	dap (dacapo)	SID104187393		10690		2793		inactive
49	CG3355	SID104180390		2146	3975	666	1026	inactive

6 entries from above in another layout.
gene	PubChem SID	reporter change call, replicate 1	firefly reporter light, replicate 1	firefly reporter light, replicate 2	Renilla control light, replicate 1	Renilla control light, replicate 2	Outcome
tin (tinman)	SID104202212		2.94e5	3.43e5	78829	1.14e5	inactive
CG13135	SID104182024		2134	6548	906	3562	inactive
CG18179	SID104190095		6533		2804		inactive
CG41099	SID104200841		11552		8156		inactive
CG41099	SID104200843		12736		8064		inactive
Jhedup (Juvenile hormone esterase duplication)	SID104186965		6211		2228		inactive
